The list is a part of this screen's results and no random one: it gathers some chemical classes. Other doses and runs of a compound may be missing. T/C gives the treated animals as a percentage of the vehicle group. For survival time, this PubChem deposit counts one and a half times the control or more as active, and values a quarter to a half above the control carry no call in these data; other NCI protocols may use other cut-offs. Some entries show no survivor count and are marked so; the dose need not have been tolerated. Schedule codes are those of the source, read here as Q, the interval in days (D) or hours (H), X, the number of doses. Some entries hold several experiments; their values stand side by side, smallest first.
System: BDF1 mice, Lewis lung carcinoma iv, survival T/C
Assay: NCI In Vivo Anticancer Drug Screen. Data for tumor model Lewis Lung Carcinoma (intravenous) in B6D2F1 (BDF1) mice
Conditions: T/C endpoint: median survival time, higher T/C = longer survival
Description: The antitumor activity of compounds was measured in mice bearing transplantable tumors. Survival or tumor size were measured and the results are expressed as the measurement made in the treated group (T) divided by the measurement made in the vehicle treated control group (C). The tumor model used in this assay is Lewis Lung Carcinoma (intravenous) in B6D2F1 (BDF1) mice

CN(CCCl)CCCl
T/C (dose: 0.06 mg/kg/injection, schedule: Q01DX009 (ip), vehicle: saline): 104 % of control [survivor count not shown] | T/C (dose: 0.12 mg/kg/injection, schedule: Q01DX009 (ip), vehicle: saline): 105 % of control [survivor count not shown] | T/C (dose: 0.25 mg/kg/injection, schedule: Q01DX009 (ip), vehicle: saline): 109 % of control [survivor count not shown] | T/C (dose: 0.39 mg/kg/injection, schedule: Q04DX003 (ip), vehicle: other): 116 % of control [survivor count not shown] | T/C (dose: 0.5 mg/kg/injection, schedule: Q01DX009 (ip), vehicle: saline): 125 % of control [survivor count not shown] | T/C (dose: 0.59 mg/kg/injection, schedule: Q04DX003 (ip), vehicle: saline): 98 [survivor count not shown] and 107 % of control [survivor count not shown] | T/C (dose: 0.65 mg/kg/injection, schedule: Q01DX001 (ip), vehicle: other): 115 % of control [survivor count not shown] | T/C (dose: 0.65 mg/kg/injection, schedule: Q04DX003 (ip), vehicle: other): 97 % of control [survivor count not shown] | T/C (dose: 0.88 mg/kg/injection, schedule: Q04DX003 (ip), vehicle: saline): 107 [survivor count not shown] and 119 % of control [survivor count not shown] | T/C (dose: 1.08 mg/kg/injection, schedule: Q01DX001 (ip), vehicle: other): 107 % of control [survivor count not shown] | T/C (dose: 1.08 mg/kg/injection, schedule: Q04DX003 (ip), vehicle: other): 112 % of control [survivor count not shown] | T/C (dose: 1.33 mg/kg/injection, schedule: Q04DX003 (ip), vehicle: saline): 102 [survivor count not shown] and 133 % of control [survivor count not shown] | T/C (dose: 1.8 mg/kg/injection, schedule: Q01DX001 (ip), vehicle: other): 121 % of control [survivor count not shown] | T/C (dose: 2.0 mg/kg/injection, schedule: Q04DX003 (ip), vehicle: saline): 105 [survivor count not shown] and 138 % of control [survivor count not shown] | T/C (dose: 3.0 mg/kg/injection, schedule: Q04DX003 (ip), vehicle: saline): 106 % of control [survivor count not shown] | T/C (dose: 324.0 micrograms/kg/injection, schedule: Q04DX003 (ip), vehicle: other): 94 % of control [survivor count not shown] | T/C (dose: 324.0 micrograms/kg/injection, schedule: Q04DX003 (ip), vehicle: saline): 93 % of control [survivor count not shown] | T/C (dose: 540.0 micrograms/kg/injection, schedule: Q04DX003 (ip), vehicle: saline): 100 % of control [survivor count not shown] | T/C (dose: 900.0 micrograms/kg/injection, schedule: Q04DX003 (ip), vehicle: saline): 104 % of control [survivor count not shown]
